Test results published in paper PMC6836474.
Results are given in words; binding and its absence hold for the method and conditions named. In cells and extracts the contact can be indirect. Some entries that bind do so weakly or less than the wild type.

The chains behind the UniProt entries cited, without tags or fusion partners. Residues count along the entry.
UniProt P46531, residues 19-2555: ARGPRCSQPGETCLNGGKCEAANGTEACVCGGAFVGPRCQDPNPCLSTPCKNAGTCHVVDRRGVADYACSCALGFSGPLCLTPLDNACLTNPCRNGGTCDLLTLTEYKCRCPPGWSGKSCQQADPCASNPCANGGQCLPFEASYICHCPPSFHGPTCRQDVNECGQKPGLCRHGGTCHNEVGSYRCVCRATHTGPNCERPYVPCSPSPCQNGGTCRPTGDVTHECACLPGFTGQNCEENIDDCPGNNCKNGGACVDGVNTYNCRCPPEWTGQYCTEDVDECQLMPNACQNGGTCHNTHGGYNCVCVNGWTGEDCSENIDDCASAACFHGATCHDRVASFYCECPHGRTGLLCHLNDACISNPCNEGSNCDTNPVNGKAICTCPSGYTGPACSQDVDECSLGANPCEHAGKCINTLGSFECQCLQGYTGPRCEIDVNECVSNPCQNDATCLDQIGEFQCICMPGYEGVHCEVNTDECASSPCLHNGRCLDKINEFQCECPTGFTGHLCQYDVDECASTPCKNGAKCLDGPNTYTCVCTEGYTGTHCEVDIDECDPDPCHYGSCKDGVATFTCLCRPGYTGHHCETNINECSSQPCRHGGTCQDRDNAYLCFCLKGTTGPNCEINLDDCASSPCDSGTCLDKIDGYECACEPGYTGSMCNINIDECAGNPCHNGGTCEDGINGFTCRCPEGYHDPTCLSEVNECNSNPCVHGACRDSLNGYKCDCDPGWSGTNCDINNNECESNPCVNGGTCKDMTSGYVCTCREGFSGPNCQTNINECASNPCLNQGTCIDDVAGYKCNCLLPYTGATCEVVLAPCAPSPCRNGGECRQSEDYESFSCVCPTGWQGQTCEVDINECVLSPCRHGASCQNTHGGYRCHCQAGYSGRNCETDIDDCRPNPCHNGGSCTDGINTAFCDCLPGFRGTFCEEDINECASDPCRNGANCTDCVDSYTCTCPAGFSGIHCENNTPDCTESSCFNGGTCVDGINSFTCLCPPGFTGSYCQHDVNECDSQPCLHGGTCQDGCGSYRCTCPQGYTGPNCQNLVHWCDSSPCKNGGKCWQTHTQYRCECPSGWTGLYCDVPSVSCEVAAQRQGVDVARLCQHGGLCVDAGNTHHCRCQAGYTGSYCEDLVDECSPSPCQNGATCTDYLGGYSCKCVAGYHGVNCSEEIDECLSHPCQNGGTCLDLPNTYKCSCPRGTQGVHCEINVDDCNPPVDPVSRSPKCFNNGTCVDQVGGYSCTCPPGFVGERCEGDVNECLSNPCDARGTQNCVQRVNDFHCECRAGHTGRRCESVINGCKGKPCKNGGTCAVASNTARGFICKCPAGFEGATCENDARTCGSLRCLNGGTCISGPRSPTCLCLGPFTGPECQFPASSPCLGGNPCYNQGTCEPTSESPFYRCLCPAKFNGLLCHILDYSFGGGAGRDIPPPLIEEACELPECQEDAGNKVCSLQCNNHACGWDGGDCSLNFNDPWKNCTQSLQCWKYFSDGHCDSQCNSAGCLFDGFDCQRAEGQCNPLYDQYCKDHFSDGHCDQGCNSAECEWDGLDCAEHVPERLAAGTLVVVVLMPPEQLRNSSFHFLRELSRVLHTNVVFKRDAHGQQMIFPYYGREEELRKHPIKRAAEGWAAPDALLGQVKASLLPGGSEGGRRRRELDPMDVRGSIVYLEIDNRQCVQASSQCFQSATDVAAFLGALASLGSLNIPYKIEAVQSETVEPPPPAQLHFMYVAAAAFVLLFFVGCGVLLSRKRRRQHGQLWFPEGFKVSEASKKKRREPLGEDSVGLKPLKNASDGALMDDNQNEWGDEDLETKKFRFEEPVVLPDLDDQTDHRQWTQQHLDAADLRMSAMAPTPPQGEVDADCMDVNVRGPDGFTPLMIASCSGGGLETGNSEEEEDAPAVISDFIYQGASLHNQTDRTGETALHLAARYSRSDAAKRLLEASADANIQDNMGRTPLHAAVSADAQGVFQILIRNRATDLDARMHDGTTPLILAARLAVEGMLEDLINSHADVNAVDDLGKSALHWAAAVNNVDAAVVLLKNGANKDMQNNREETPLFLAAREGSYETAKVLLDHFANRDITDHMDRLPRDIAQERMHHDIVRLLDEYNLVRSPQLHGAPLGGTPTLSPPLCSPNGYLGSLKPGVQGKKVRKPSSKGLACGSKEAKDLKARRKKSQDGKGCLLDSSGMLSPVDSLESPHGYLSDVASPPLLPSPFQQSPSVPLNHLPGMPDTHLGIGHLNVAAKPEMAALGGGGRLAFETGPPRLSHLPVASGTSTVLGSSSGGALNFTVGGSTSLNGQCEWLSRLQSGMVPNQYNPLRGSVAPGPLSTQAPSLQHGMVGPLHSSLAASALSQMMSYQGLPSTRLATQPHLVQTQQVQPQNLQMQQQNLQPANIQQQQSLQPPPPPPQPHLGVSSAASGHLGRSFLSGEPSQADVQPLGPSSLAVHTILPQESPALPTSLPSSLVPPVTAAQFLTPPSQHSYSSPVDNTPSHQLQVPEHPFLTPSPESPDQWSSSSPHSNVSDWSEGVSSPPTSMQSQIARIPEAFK
UniProt P78504, residues 34-1218: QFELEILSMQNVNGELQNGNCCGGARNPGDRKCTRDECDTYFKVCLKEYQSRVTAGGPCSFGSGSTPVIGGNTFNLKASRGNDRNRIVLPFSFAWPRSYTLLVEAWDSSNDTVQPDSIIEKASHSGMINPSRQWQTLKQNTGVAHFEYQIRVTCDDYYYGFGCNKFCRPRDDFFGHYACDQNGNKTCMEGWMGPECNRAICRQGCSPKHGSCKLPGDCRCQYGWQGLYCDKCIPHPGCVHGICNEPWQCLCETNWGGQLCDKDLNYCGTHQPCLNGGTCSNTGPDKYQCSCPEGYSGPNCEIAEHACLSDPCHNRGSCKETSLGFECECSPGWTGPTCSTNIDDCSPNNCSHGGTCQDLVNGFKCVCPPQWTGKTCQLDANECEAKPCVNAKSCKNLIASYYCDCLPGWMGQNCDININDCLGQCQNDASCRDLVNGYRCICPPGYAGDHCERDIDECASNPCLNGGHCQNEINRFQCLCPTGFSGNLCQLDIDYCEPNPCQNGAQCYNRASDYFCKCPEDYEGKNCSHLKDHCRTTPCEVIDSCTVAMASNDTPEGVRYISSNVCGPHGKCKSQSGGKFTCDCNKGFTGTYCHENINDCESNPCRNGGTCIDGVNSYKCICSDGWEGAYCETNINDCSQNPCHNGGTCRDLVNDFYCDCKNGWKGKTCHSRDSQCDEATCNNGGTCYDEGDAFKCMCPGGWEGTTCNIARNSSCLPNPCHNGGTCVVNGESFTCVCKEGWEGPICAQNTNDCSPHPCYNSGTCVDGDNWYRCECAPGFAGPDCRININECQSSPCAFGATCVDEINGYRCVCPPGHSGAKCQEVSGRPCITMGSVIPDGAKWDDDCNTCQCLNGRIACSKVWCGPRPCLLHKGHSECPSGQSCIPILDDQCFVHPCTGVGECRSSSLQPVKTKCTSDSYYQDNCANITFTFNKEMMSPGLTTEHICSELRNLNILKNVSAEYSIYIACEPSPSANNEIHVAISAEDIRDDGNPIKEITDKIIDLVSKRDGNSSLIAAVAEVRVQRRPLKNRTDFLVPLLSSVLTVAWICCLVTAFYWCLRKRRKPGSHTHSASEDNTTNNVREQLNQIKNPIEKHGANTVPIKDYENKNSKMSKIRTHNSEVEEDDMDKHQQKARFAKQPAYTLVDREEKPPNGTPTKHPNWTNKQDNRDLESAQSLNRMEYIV

What was measured:
Notch1 = Notch1 (UniProt P46531); experiment: co-IP; cells in 10-cm dishes transfected with 10 μg corresponding plasmids, harvested in PBS containing 1% NP40; Western blot; which partner was precipitated is not stated
JAG1 = JAG1 (UniProt P78504); experiment: as above

binding (Notch1): binds | binding (JAG1): binds
B1: Aspartate β-hydroxylase (ASPH) (enzyme, UniProt Q12797 1-758)
chain: MAQRKNAKSSGNSSSSGSGSGSTSAGSSSPGARRETKHGGHKNGRKGGLSGTSFFTWFMVIALLGVWTSVAVVWFDLVDYEEVLGKLGIYDADGDGDFDVDDAKVLLGLKERSTSEPAVPPEEAEPHTEPEEQVPVEAEPQNIEDEAKEQIQSLLHEMVHAEHVEGEDLQQEDGPTGEPQQEDDEFLMATDVDDRFETLEPEVSHEETEHSYHVEETVSQDCNQDMEEMMSEQENPDSSEPVVEDERLHHDTDDVTYQVYEEQAVYEPLENEGIEITEVTAPPEDNPVEDSQVIVEEVSIFPVEEQQEVPPETNRKTDDPEQKAKVKKKKPKLLNKFDKTIKAELDAAEKLRKRGKIEEAVNAFKELVRKYPQSPRARYGKAQCEDDLAEKRRSNEVLRGAIETYQEVASLPDVPADLLKLSLKRRSDRQQFLGHMRGSLLTLQRLVQLFPNDTSLKNDLGVGYLLIGDNDNAKKVYEEVLSVTPNDGFAKVHYGFILKAQNKIAESIPYLKEGIESGDPGTDDGRFYFHLGDAMQRVGNKEAYKWYELGHKRGHFASVWQRSLYNVNGLKAQPWWTPKETGYTELVKSLERNWKLIRDEGLAVMDKAKGLFLPEDENLREKGDWSQFTLWQQGRRNENACKGAPKTCTLLEKFPETTGCRRGQIKYSIMHPGTHVWPHTGPTNCRLRMHLGLVIPKEGCKIRCANETKTWEEGKVLIFDDSFEHEVWQDASSFRLIFIVDVWHPELTPQQRRSLPAI
